According to patent publication US6013453:

System: T1, zinc finger peptide 1B-2A-3B (synthetic construct)
T1 sequence: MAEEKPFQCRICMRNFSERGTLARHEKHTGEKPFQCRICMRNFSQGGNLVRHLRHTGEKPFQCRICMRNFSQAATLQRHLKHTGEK
Test: ELONA
Settings: protein in a lysate after overexpression, label: biotin

Sequence: CCCCTTTCTCTTCCAGAAGCCCTTCAGCGGCCA (double strand) [genomic c-ABL intron 1/exon 2 junction]
- binding result (discriminates against c-ABL, variant of p190 BCR-ABL cDNA fusion site): binds more weakly

Sequence: TTCCATGGAGACGCAGAAGCCCTTCAGCGGCCA (double strand) [p190 BCR-ABL cDNA fusion site]
- binding result (lower affinity than 1A-2A-3B): binds

Sequence: TTCCATGGAGACGCAGGTGAGTTCCTCACGCCA (double strand) [genomic BCR exon 1/intron 1 junction]
- binding result (discriminates against genomic BCR, variant of p190 BCR-ABL cDNA fusion site): binds more weakly

Results from cells or extracts need not show a direct contact. Where a protein sequence is shown, tags need not be part of it. The exact form of at least one protein or probe is not confirmed. The comparison behind a weaker result is the experiment's own reference, which may not be listed here.
